These results are taken from patent US20250283049A1, “AGENT FOR CULTURING ORGANOID IN ABSENCE OF EXTRACELLULAR MATRIX” (KEIO UNIVERSITY, priority 2022, published 2025).

The test system of series [1] is human lower gastrointestinal organoids. The series is described as follows: Organoid morphology by immunostaining; organoids established in Matrigel, cultured without Matrigel with Lats-IN. Type of series: cell-based. Conditions: absence of Matrigel; Lats-IN 10 μM.
In series [2] the test system is human large intestine-derived organoids. The series is described as follows: Morphology by immunostaining of organoids established without Matrigel with Lats-IN, 18 passages. Type of series: cell-based. The settings on record: established without Matrigel with Lats-IN 10 μM, day 7.

In the case of `O=C(N=c1sccn1Cc1ccccc1)c1c[nH]c2ncccc12` [Lats-IN], the organoid morphology result in series [1] is “spherical morphology in which cells are multilayered and the apical polarity of the epithelial cells was not maintained”; in series [2] it was “spherical morphology in which cells are multilayered and the apical polarity of the epithelial cells was not maintained”.
